Assay results reported in patent publication US9688709B2, “Phosphaplatins and their use for treatment of cancers” (OHIO UNIVERSITY, priority 2010, dated 2017).
Some entries share one result that the patent states for a list of compounds.

Test system: BCL2
Assay: Western blot protein expression, BCL2

Compound: O=P1(O)OP(=O)(O)[O][Pt]2([OH])([OH])([NH][C@@H]3CCCC[C@H]3[NH]2)[O]1 [(1R,2R)-pyrodach-4, ((1R,2R)-1,2-cyclohexanediamine)-trans-dihydroxo(dihydrogenpyrophosphato)platinum (IV)]
- BCL2 down regulated: ≤ 70%

Compound: O=P1(O)OP(=O)(O)[O][Pt]2([NH][C@@H]3CCCC[C@H]3[NH]2)[O]1 (stereo partly drawn) [(1R,2R)-pyrodach-2, ((1R,2R)-1,2-cyclohexanediamine)(dihydrogenpyrophosphato)platinum (II)]
- BCL2 down regulated: ≤ 70%
